Structures were worked out from names or drawings and are uncertain.
Test system: isolated rat bladder

Which Kb does the source give for `O=C(NC[C@@H]1[C@H]2CN(CCc3ccc4c(c3)OCO4)C[C@@H]12)C(O)(c1ccccc1)C1CCCC1` (relative stereo) here?
Its Kb is 0.0617 µM.

Reference: patent US20070004791A1, “3,6-disubstituted azabicyclo {3.1.0} hexane derivatives useful as muscarnic receptor antagonists” (priority 2002, published 2007)
